Results reported in article PMC10885970.
No constants are given. Whether binding was seen depends on the method and setting. Binding seen in cells or lysates may run through a third protein. Some binding calls cover weakened binding; strength is not graded here.

Amino acid sequences for entries named in this document (tags omitted).
UniProt O89090: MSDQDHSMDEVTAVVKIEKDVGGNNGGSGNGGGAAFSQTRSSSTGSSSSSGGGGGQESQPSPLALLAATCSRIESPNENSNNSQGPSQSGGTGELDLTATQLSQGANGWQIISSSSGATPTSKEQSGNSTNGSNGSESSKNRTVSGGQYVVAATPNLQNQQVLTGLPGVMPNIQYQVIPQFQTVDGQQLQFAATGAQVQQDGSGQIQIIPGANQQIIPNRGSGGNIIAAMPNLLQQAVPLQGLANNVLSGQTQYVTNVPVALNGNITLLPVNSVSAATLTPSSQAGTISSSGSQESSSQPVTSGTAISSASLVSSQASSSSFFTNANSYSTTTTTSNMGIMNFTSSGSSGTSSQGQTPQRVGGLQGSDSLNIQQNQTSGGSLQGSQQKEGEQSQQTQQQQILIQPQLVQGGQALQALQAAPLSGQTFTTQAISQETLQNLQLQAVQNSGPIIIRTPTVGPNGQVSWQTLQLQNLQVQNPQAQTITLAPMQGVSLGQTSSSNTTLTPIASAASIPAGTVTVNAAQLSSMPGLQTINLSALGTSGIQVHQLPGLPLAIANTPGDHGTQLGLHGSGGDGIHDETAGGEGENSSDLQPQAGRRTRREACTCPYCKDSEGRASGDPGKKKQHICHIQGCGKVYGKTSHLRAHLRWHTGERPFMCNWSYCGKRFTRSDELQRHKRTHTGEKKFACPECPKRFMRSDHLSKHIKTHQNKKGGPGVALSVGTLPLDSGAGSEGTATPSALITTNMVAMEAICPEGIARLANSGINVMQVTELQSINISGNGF

Target: SP1 (mouse (endogenous in mouse hypothalamus)) (UniProt O89090)
Experiment: co-IP; endogenous proteins from mouse hypothalamus lysate; IP buffer 50 mM Tris, 150 mM NaCl, 0.5% NP40, pH 7.5; antibody (anti-PGC-1α or anti-SP1) on Protein A/G beads, overnight at 4 °C; immunoblot

binding: binds
B1: peroxisome proliferator-activated receptor γ coactivator 1α (protein, UniProt O70343 1-797)
chain: MAWDMCSQDSVWSDIECAALVGEDQPLCPDLPELDLSELDVNDLDTDSFLGGLKWCSDQSEIISNQYNNEPANIFEKIDEENEANLLAVLTETLDSLPVDEDGLPSFDALTDGAVTTDNEASPSSMPDGTPPPQEAEEPSLLKKLLLAPANTQLSYNECSGLSTQNHAANHTHRIRTNPAIVKTENSWSNKAKSICQQQKPQRRPCSELLKYLTTNDDPPHTKPTENRNSSRDKCASKKKSHTQPQSQHAQAKPTTLSLPLTPESPNDPKGSPFENKTIERTLSVELSGTAGLTPPTTPPHKANQDNPFKASPKLKPSCKTVVPPPTKRARYSECSGTQGSHSTKKGPEQSELYAQLSKSSGLSRGHEERKTKRPSLRLFGDHDYCQSLNSKTDILINISQELQDSRQLDFKDASCDWQGHICSSTDSGQCYLRETLEASKQVSPCSTRKQLQDQEIRAELNKHFGHPCQAVFDDKSDKTSELRDGDFSNEQFSKLPVFINSGLAMDGLFDDSEDESDKLSYPWDGTQPYSLFDVSPSCSSFNSPCRDSVSPPKSLFSQRPQRMRSRSRSFSRHRSCSRSPYSRSRSRSPGSRSSSRSCYYYESSHYRHRTHRNSPLYVRSRSRSPYSRRPRYDSYEAYEHERLKRDEYRKEHEKRESERAKQRERQKQKAIEERRVIYVGKIRPDTTRTELRDRFEVFGEIEECTVNLRDDGDSYGFITYRYTCDAFAALENGYTLRRSNETDFELYFCGRKQFFKSNYADLDTNSDDFDPASTKSKYDSLDFDSLLKEAQRSLRR
